Reference: paper PMC8767159, “Multiparameter Optimization of Trypanocidal Cruzain Inhibitors With In Vivo Activity and Favorable Pharmacokinetics” (Frontiers in Pharmacology, 2022)

system: HFF-1 fibroblasts; assay: Cytotoxicity MTS assay in HFF-1 fibroblasts; type: cell-based, human; conditions: selectivity index
Description: The synthesized compounds were evaluated for their cytotoxicity against HFF-1 cells using the MTS assay (Promega, Madison, WI) ([Barltrop et al., 1991]) as previously described ([Ferreira et al., 2019]). HFF-1 fibroblasts were plated at 2 × 10^3/well in 96-well culture plates in RPMI 1640 without phenol red enriched with 10% FCS and incubated overnight at 37°C and 5% CO2. Next, 7 concentrations (0.1–100 µM) of the compounds were added in 3-fold serial dilutions, each concentration in triplicate, and the plates were incubated for 72 h at 37°C and 5% CO2. Next, 20 µl of MTS was added to each well, and the plates were incubated for an additional 4 h at 37°C and 5% CO2. The absorbance was measured at 490 nm using a spectrophotometer, and the data were transferred to SigmaPlot 10.0 (Systat Software Inc., Erkrath, Germany) to determine the IC50 values. Doxorubicin (Sigma–Aldrich) was used as a positive control, and untreated wells (100% growth) were used as negative controls in all plates. All compounds were tested in two independent assays.

| Compound | SI (IC50 HFF-1/IC50 T. cruzi) |
| --- | --- |
| O=C(COc1ccccc1)NCCc1nc2ccccc2n1CCCOc1ccccc1 [Compound 24] | >21 |
| O=C(Cn1ccnc1[N+](=O)[O-])NCc1ccccc1 [BZ, benznidazole, reference compound] | > 33 |
| Cc1ccccc1OCC(=O)NCCc1nc2ccccc2[nH]1 [Compound 17] | > 35 |
| O=C(COc1ccccc1)NCCc1nc2ccccc2n1Cc1ccccc1 [Compound 26] | >13 |
| O=C(COc1ccccc1)NCCc1nc2ccccc2n1CCOc1ccccc1 [Compound 20] | >14 |
| NC(=O)Cn1c(CCNC(=O)COc2ccccc2)nc2ccccc21 [Compound 28] | >15 |
| O=C(COc1ccccc1)NCCc1nc2ccccc2[nH]1 [Compound 1] | > 26 |
| Cc1ccccc1OCC(=O)NCCc1nc2ccccc2o1 [Compound 37] | > 34 |
| O=C(COc1ccc2ccccc2c1Br)NCCc1nc2ccccc2[nH]1 [Compound 34] | >2 |
| O=C(COc1ccc(Br)cc1)NCCc1nc2ccccc2[nH]1 [Compound 33] | >15 |
| C=CCCn1c(CCNC(=O)COc2ccccc2Cl)nc2ccccc21 [Compound 38] | >9 |
| O=C(COc1ccc2cc(O)ccc2c1)NCCc1nc2ccccc2[nH]1 [Compound 10] | >7 |
| O=C(COc1ccc2ccccc2c1)NCCc1nc2ccccc2[nH]1 [Compound 35] | > 2 |
| CC(=O)Nc1ccc(OCC(=O)NCCc2nc3ccccc3[nH]2)cc1 [Compound 2] | >8 |
| O=C(COc1ccccc1Br)NCCc1nc2ccccc2[nH]1 [Compound 18] | > 61 |
| O=C(COc1ccccc1[N+](=O)[O-])NCCc1nc2ccccc2[nH]1 [Compound 32] | >12 |
| CC(=O)Nc1cccc(OCC(=O)NCCc2nc3ccccc3[nH]2)c1 [Compound 3] | >20 |
| O=C(COc1ccc(NC(=O)CCCO)cc1)NCCc1nc2ccccc2[nH]1 [Compound 5] | >2 |
| C=CCCn1c(CCNC(=O)COc2ccccc2)nc2ccccc21 [Compound 27] | >14 |
| O=C(COc1cccc([N+](=O)[O-])c1)NCCc1nc2ccccc2[nH]1 [Compound 8] | > 29 |
